According to the supplement of paper PMC7858590:
“And” between values parts separate entries of the source, which are not always exact repeats. Equal entries are not always repeated. ± gives the standard deviation of the averaged measurements. Over roughly 3,800 compounds, “cell shape (eccentricity) Z-score vs DMSO control” has its median near 1.1; the lowest 2% begin near -4.7. The list shows a part of the results.

What follows are compounds tested on human monocyte-derived macrophages (M0) (assay: cell shape (eccentricity) Z-score vs DMSO control; higher = more elongated, M2-like morphology). Settings: 20 µM; 24 h; macrophage state: M0 (M-CSF).

SMILES	cell shape (Z-score)
CSCC[C@H](NC(=O)[C@@H](N)Cc1c[nH]c2ccccc12)C(=O)N[C@@H](CC(=O)O)C(=O)N[C@@H](Cc1ccccc1)C(N)=O	-0.866
CC(=O)N(O)[C@@H]1c2cc(C#N)ccc2OC(C)(C)[C@H]1O	0.644
CC1=CC(=O)CC2C1(C)CCC(C)C2(C)CC/C(C)=C\C(=O)O (stereo not given)	8.02
OC(CN1CCC(Cc2ccc(F)cc2)CC1)c1ccc(Cl)cc1 (stereo not given)	-3.34
C[C@@H]1O[C@@H](O[C@H]2[C@@H]3C=CO[C@@H](O[C@@H]4O[C@H](CO)[C@@H](O)[C@H](O)[C@H]4O)[C@@H]3[C@@]3(CO)O[C@@H]23)[C@H](OC(=O)/C=C/c2ccc(O)c(O)c2)[C@H](O)[C@H]1O	-0.274
COc1cc(C[C@H]2CO[C@H](c3ccc(O[C@@H]4O[C@H](CO)[C@@H](O)[C@H](O)[C@H]4O)c(OC)c3)[C@H]2CO)ccc1O	0.25 ± 0.75
O=c1cc(-c2ccccc2O)oc2cc(O)ccc12	1.23
COC(=O)C1(Cc2ccc(O)cc2)OC(=O)C(OC)=C1c1ccc(O)cc1 (stereo not given)	1.59 ± 0.76
CCOC(=O)COc1ccc2c(=O)cc(-c3ccccc3)oc2c1	0.221
CC1(C)CC[C@]2(C(=O)O)CC[C@]3(C)C(=CCC4[C@@]5(C)CC[C@H](O[C@@H]6O[C@H](CO)[C@@H](O)[C@H](O)[C@H]6O)[C@@](C)(CO)C5CC[C@]43C)[C@@H]2C1 (stereo not given in full)	1.14
O=C1NC(=O)[C@@H](c2cn3c4c(cccc24)CCC3)[C@@H]1c1c[nH]c2ccccc12	-1.76
C/C=C1\[C@H](O[C@@H]2O[C@H](CO)[C@@H](O)[C@H](O)[C@H]2O)OC=C(C(=O)OC)[C@H]1CC(=O)OC	0.196
CNC(=NC#N)NCCSCc1csc(N=C(N)N)n1	2.04
O=C1c2ccccc2CCC1CNCCc1ccc(O)cc1 (stereo not given)	2.69
O=c1cc(N2CCNCC2)oc2c(-c3ccccc3)cccc12	0.793
C=C(C)[C@H]1C[C@@]2(C)C(=CC1=O)CC[C@@H](O)[C@@H]2C	-0.264
C[C@@H]1O[C@@H](O[C@@H]2[C@@H](O)[C@H](Oc3cc(O)c4c(c3)OC(c3ccc(O)cc3)CC4=O)O[C@H](COC3OCC(O)C(O)C3O)[C@H]2O)[C@H](O)[C@H](O)[C@H]1O (stereo not given in full)	-0.0118
Cc1cc(=O)oc2cc(O)cc(O)c12	-0.982
O=c1cc(-c2ccccc2)oc2cc(O)ccc12	-0.27
c1cc(NCCc2c[nH]c3ccccc23)cc(Nc2ccncc2)c1	2.05
COc1ccc2c(c1OC)OC[C@@H](c1ccc(OC)c(OC)c1OC)C2	2.19
OC[C@H]1O[C@@H](OC(CCCCc2ccc(O)cc2)CCc2ccc(O)cc2)[C@H](O)[C@@H](O)[C@@H]1O (stereo not given in full)	0.0638 ± 0.68
C=C(C(=O)O[C@@H]1O[C@H](CO)[C@@H](O)[C@H](O)[C@H]1O)[C@@H]1CC[C@@]2(C)C[C@H](O)C[C@@](C)(O)C2C1 (stereo not given in full)	2.36
Nc1nnnn1-c1ccccc1	0.136
CC1(C)CC[C@]2(C(=O)O)CC[C@]3(C)C(=CCC4[C@@]5(C)CC[C@H](O[C@@H]6OC[C@H](O)[C@H](O)[C@H]6O)[C@@](C)(CO)C5CC[C@]43C)C2C1 (stereo not given in full)	-2.37
O=c1c(O)cccc2cc(O)c(O)c(O)c12	-1.08
CC(=O)O[C@@H]1C[C@@]2(C)C(CC[C@@H]2C(C)=O)C2CCC3=CC(=O)CC[C@]3(C)C21 (stereo not given in full)	-1.48

Compounds above with an aryl methoxy group:
SMILES	cell shape (Z-score)
COc1cc(C[C@H]2CO[C@H](c3ccc(O[C@@H]4O[C@H](CO)[C@@H](O)[C@H](O)[C@H]4O)c(OC)c3)[C@H]2CO)ccc1O	0.25 ± 0.75
COc1ccc2c(c1OC)OC[C@@H](c1ccc(OC)c(OC)c1OC)C2	2.19

Shown as comma-separated lines: 4 of the compounds above
SMILES,cell shape (Z-score)
C=C(C)[C@H]1C[C@@]2(C)C(=CC1=O)CC[C@@H](O)[C@@H]2C,-0.264
C[C@@H]1O[C@@H](O[C@@H]2[C@@H](O)[C@H](Oc3cc(O)c4c(c3)OC(c3ccc(O)cc3)CC4=O)O[C@H](COC3OCC(O)C(O)C3O)[C@H]2O)[C@H](O)[C@H](O)[C@H]1O (stereo not given in full),-0.0118
Cc1cc(=O)oc2cc(O)cc(O)c12,-0.982
O=c1cc(-c2ccccc2)oc2cc(O)ccc12,-0.27

Continuation.

SMILES	cell shape (Z-score)
Cn1cnc2c(NCc3ccccc3)nc(NCCO)nc21	2.51
CC1(C)CC1C(=O)NC(=CCCCCSCC(N)C(=O)O)C(=O)O (stereo not given)	8.47
NC(=O)CNCCC(c1ccccc1)c1ccccc1	2.9
CCCC1(O)Cc2c(C(C)=O)cc3cccc(O)c3c2O1 (stereo not given)	2
COc1cc(=O)oc(C(C)C(C)O)c1CO (stereo not given)	2.74 ± 0.56
COc1cccc2c1C(=O)c1c(O)c3c(c(O)c1C2=O)C[C@@](O)(C(=O)CO)C[C@@H]3O[C@H]1C[C@H](N)[C@H](O)[C@H](C)O1	3.64 ± 4.4
CC1Cc2ccc3c(c2C(O)C1)C(=O)c1cccc(O)c1C3O (stereo not given)	4.24
COc1ccc(C2CC(=O)c3c(O)cc(O[C@@H]4O[C@H](CO[C@@H]5O[C@@H](C)[C@H](O)[C@@H](O)[C@H]5O)[C@@H](O)[C@H](O)[C@H]4O)cc3O2)cc1 (stereo not given in full)	-0.496
CCC1(c2ccccc2)C(=O)NCNC1=O	2.5
CC(C(=O)O)c1cccc(C(=O)c2ccccc2)c1 (stereo not given)	0.13
CCC(C)/C=C/C1=CC2=C(Cl)C(=O)C3(C)OC(=O)C(C(=O)C(C)C(C)O)C3C2=CO1 (stereo not given)	-2.83
COc1cc2ncn(-c3cc(OCc4ccccc4C(F)(F)F)c(C(N)=O)s3)c2cc1OC	15.5
COc1c(C2OCC(OC(C)=O)C(OC(C)=O)C2OC(C)=O)c(O)cc2oc(-c3ccc(OC4OC(CO)C(O)C(O)C4O)cc3)cc(=O)c12 (stereo not given)	-0.896
COc1cccc(CCc2ccccc2OCC[C@@H]2C[C@@H](O)CN2C)c1	-1.88
Cc1oc(=O)oc1CN1CCN(c2cc3c(cc2F)c(=O)c(C(=O)O)c2n3C(C)S2)CC1 (stereo not given)	-5.14
COc1cc2ccc(=O)oc2c(O[C@@H]2O[C@H](CO)[C@@H](O)[C@H](O)[C@H]2O)c1OC	1.91
CC(=O)O[C@@H]1CC2C(C)(CC[C@H](O)C2(C)C)C2CC[C@]3(C)C(=CC(=O)O[C@H]3c3ccoc3)C21C (stereo not given in full)	0.0269
O=C(O)c1cc2cc(Cl)ccc2[nH]1	0.516
C=C1[C@H]2CC[C@@]3(C)[C@H](c4ccoc4)OC(=O)C[C@]13O[C@H]1C[C@H](O)C(C)(C)[C@H](CC(=O)OC)[C@]12C	-1.66
Cc1cc(O)c2c(c1)C(=O)c1cccc(O)c1C2=O	3.93
COc1ccc(-c2coc3cc(O)ccc3c2=O)c(O)c1O	3.23
CC#CC#C/C=C1\C=CC2(OC=CC2OC(=O)C=C(C)C)O1 (stereo not given)	-2.06
O=C(NC(CO)Cc1ccccc1)c1ccccc1 (stereo not given)	0.558
CCCCOc1ccc(C(=O)CCN2CCCCC2)cc1	3.04
CCOC(=O)c1cnc2c(cnn2CC)c1NN=C(C)C	-0.739
CO[C@H]1C[C@@H]2CC[C@@H](C)[C@@](O)(O2)C(=O)C(=O)N2CCCC[C@H]2C(=O)O[C@H]([C@H](C)C[C@@H]2CC[C@@H](OC(=O)C(C)(CO)CO)[C@H](OC)C2)CC(=O)[C@H](C)/C=C(\C)[C@@H](O)[C@@H](OC)C(=O)[C@H](C)C[C@H](C)/C=C/C=C/C=C/1C	2.12 ± 1.8
COc1ccc(CCC(=O)O)c(O)c1	0.196

SMILES	cell shape (Z-score)
COc1cc2c(N3CCN(C(=O)Nc4ccc(OC(C)C)cc4)CC3)ncnc2cc1OCCCN1CCCCC1	0.0806
Clc1ccc(CO/N=C(\Cn2ccnc2)c2ccc(Cl)cc2Cl)c(Cl)c1	2
OCc1ccc(-c2ccc(-c3ccc(CO)s3)o2)s1	-3.3 and -5.19
CCc1cc(C(C)=O)c(O)cc1OCCCCCC(C)(C)c1nnn[nH]1	1.49
C[C@@H]1O[C@@H](O[C@H]2[C@H](OC(=O)[C@]34CCC(C)(C)C[C@H]3C3=CCC5[C@@]6(C)C[C@H](O)[C@H](O[C@@H]7O[C@H](CO)[C@@H](O)[C@H](O)[C@H]7O)[C@@](C)(CO)C6[C@H](O)C[C@@]5(C)[C@]3(C)CC4)OC[C@H](O)[C@@H]2O)[C@H](O)[C@H](O)[C@H]1O[C@@H]1OC[C@@H](O)[C@H](O[C@@H]2OC[C@](O)(CO)[C@H]2O)[C@H]1O (stereo not given in full)	-6.49
COC(=O)c1csc(C(=O)c2c[nH]c3ccccc23)n1	-0.32
C/C=C(\C)C(=O)OC(/C=C/C(O)C(C)O)C1C=CC(=O)O1 (stereo not given)	0.569 ± 2.1
CCCCNc1cc(C(=O)O)cc(S(N)(=O)=O)c1Oc1ccccc1	-1.21
CC1CC(=O)C2C(O)(C1)CC(O)C13OC1c1c(O)cccc1C(=O)C23O (stereo not given)	-0.193
C=CCc1cccc(C=NNC(=O)CN2CCN(Cc3ccccc3)CC2)c1O	-1.18
COC(=O)c1cc(Cl)ccc1OC	1.55
C=C[C@]1(C)C=C2CCC3C(C)(CCC[C@@]3(C)C(=O)O)C2CC1 (stereo not given in full)	2.71
CC1OC(OCC2OC(OCC3(C)C(O)CCC4(C)C3CCC3(C)C4CCC4C5=CC(C)(C)CCC5(C(=O)O)CCC43C)C(O)C(O)C2O)C(O)C(O)C1O (stereo not given)	-0.65
CCCCCCCCCc1ccc(OCCOCCOCCOCCOCCOCCOCCOCCOCCO)cc1	7.4
CC[C@H]1C(=O)CC2C3CCC4C[C@@H](O)[C@]5(O)C[C@]4(CO5)C3CC[C@@]21C (stereo not given in full)	1.8 ± 0.49
Cc1nn(C)c2nc(NNC(=O)Nc3cc(Cl)nc(Cl)c3)cc(C(C)C)c12	10.4
CC1(C)CC[C@]2(C(=O)O[C@@H]3O[C@H](CO)[C@@H](O)[C@H](O)[C@H]3O)CC[C@]3(C)C(=CCC4[C@@]5(C)CC[C@H](O[C@@H]6O[C@H](C(=O)O)[C@@H](O[C@@H]7OC[C@H](O)[C@H](O)[C@H]7O)[C@H](O)[C@H]6O)C(C)(C)C5CC[C@]43C)C2C1 (stereo not given in full)	-0.454
COc1ccc(-c2oc3cc(OC)ccc3c2C(=O)c2ccc(C#N)cc2)cc1	0.42
CN[C@@H](C)C(=O)N[C@@H]1CC(=O)N2[C@H](CC[C@H]2C(=O)NC(c2ccccc2)c2ccccc2)CN(C(=O)CC(C)C)C1	3.27
COC(=O)C1=CO[C@@H](O[C@@H]2O[C@H](CO)[C@@H](O)[C@H](O)[C@H]2O)[C@@H]2[C@@H](C)[C@@H](O)[C@@H](OC(=O)/C=C/c3ccc(O)c(O)c3)[C@H]12	0.934
COc1ccc2[nH]c(S(=O)Cc3ncc(C)c(OC)c3C)nc2c1 (stereo not given)	0.657
COc1cc(OC)c(C(C)=O)c(O)c1C	1.58
COc1ccc(-c2cc(=O)c3c(O)cc(O)cc3o2)cc1	4.21
CN1C(C)(C)CCCC1(C)C	1.3
CC1CCC2(C(=O)OC3OC(CO)C(O)C(O)C3O)CCC3(C(=O)O)C(=CCC4C5(C)CCC(O)C(C)(C)C5CCC43C)C2C1C (stereo not given)	-0.295 ± 2.7
O=C1NC2CCc3nc4ccccc4c(=O)n3C2=Nc2ccccc21 (stereo not given)	2.01 ± 1.9
